Measured values reported in paper PMC9516604.
Construct, isoform or probe ends are uncertain for at least one entry. For some of these results: No signal at the amounts used counts as a negative. For some of these results: Where cells or extracts were used, other partners may take part. For some of these results: A weaker result is weaker than the reference pair of the same experiment. For some of these results: At least one verdict was read from the data and is not stated in words by the source.

Protein sequences, listed by entry. Tags and fused reporters are not part of them. Lines headed by an entry give the natural chain unless they say otherwise; changes in a name come on top.
UniProt Q08J23, whole entry: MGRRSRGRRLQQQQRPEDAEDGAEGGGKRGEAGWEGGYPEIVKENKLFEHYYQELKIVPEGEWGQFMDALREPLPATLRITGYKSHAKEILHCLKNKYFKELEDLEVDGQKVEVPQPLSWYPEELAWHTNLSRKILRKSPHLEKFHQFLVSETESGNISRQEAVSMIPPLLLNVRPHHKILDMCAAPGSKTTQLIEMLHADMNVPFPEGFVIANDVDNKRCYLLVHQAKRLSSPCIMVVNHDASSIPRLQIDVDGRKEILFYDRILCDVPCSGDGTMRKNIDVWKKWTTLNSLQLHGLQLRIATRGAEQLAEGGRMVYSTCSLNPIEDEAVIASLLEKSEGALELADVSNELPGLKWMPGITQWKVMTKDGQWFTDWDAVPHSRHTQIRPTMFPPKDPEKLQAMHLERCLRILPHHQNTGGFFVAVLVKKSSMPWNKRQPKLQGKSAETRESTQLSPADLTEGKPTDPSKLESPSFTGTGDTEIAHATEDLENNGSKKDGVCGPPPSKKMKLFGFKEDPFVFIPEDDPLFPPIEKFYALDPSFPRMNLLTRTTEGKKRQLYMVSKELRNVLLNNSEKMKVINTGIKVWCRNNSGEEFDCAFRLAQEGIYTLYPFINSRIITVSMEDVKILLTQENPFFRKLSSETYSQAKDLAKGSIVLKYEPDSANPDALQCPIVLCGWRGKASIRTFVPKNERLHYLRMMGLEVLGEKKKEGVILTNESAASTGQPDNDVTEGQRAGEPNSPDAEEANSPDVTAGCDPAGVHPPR
UniProt P67809: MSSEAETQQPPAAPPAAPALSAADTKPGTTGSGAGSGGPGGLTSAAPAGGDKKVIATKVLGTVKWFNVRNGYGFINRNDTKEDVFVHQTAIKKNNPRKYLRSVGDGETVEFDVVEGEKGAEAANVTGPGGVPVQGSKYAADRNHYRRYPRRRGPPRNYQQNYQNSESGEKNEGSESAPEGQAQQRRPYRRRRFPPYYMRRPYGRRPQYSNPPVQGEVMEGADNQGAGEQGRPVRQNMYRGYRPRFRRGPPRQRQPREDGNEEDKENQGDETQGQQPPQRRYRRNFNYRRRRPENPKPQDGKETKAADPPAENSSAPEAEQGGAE

How the values were obtained:
NSUN2 = NSUN2 (UniProt Q08J23); assay: pull-down; settings: pull-down: RIPA lysate, streptavidin beads with 50 pmol probe, 60 min 4 C, label: 3'-biotin
YBX1 (Homo sapiens) = YBX1 (Homo sapiens) (UniProt P67809); assay: EMSA; settings: 200 ng YBX1, 20 ng probe, EMSA: binding buffer (composition not given), 30 min room temperature, 6% native PAGE, commercial protein, label: biotin, probe letters rebuilt from the primers and the genome

CUGCUGCUGCAGCAGCAGCAGCAGCAGCAGCAGCAGCAGCAGCAGCAGCAGCAGCAGCAGCAGCAGCAGCAG [AR site 2 pull-down probe (probe-normal)]
binding result (NSUN2; C4-2 lysate, protein in an extract): binds

GGGAGACUUUCCAGAAUCUGUUCCAGAGCGUGCGCGAAGUGAUCCAGAACCCGGGCCCCAGGCACCCAGAGGCCGCGAGCGCAGCACCUCCCGGCGCCAGUUUGCUGCUGCUGCAGCAGCAGCAGCAGCAGCAGCAGCAGCAGCAGCAGCAGCAGCAGCAGCAGCAGCAGCAGCAGCAGCAAGAGACUAGCCCCAGGCAGCAGCAGCAGCAGCAGGGUGAGGAUGGUUCUCCCCAAGCCCAUCGUAGAGGCCCCACAGGCUACCUGGUCCUGGAUGAGGAACAGCAACCUUCACAGCCGCAGUCGGCCCUGGAGUGCCACCCCGAGAGAGGUUGCGUCCCAGAGCCUGGAGCCGCCGUGGCCGCCAGCAAGGGGCUGCC [AR site 2 probe, m5C-modified]
binding result (YBX1 (Homo sapiens); m5C at clustered cytosines (enzymatic, NSUN2 + SAM; exact positions not given)): binds

GGGAGACUUUCCAGAAUCUGUUCCAGAGCGUGCGCGAAGUGAUCCAGAACCCGGGCCCCAGGCACCCAGAGGCCGCGAGCGCAGCACCUCCCGGCGCCAGUUUGCUGCUGCUGCAGCAGCAGCAGCAGCAGCAGCAGCAGCAGCAGCAGCAGCAGCAGCAGCAGCAGCAGCAGCAGCAGCAAGAGACUAGCCCCAGGCAGCAGCAGCAGCAGCAGGGUGAGGAUGGUUCUCCCCAAGCCCAUCGUAGAGGCCCCACAGGCUACCUGGUCCUGGAUGAGGAACAGCAACCUUCACAGCCGCAGUCGGCCCUGGAGUGCCACCCCGAGAGAGGUUGCGUCCCAGAGCCUGGAGCCGCCGUGGCCGCCAGCAAGGGGCUGCC [AR site 2 probe, unmodified]
binding result (YBX1 (Homo sapiens)): no binding

AUGAUGAUGAAGAAGAAGAAGAAGAAGAAGAAGAAGAAGAAGAAGAAGAAGAAGAAGAAGAAGAAGAAGAAG [AR site 2 pull-down probe (probe-mut)]
binding result (NSUN2; cell lysate, site 2 cytosines stated crucial for NSUN2 binding, protein in an …): binds more weakly
